# In PubChem BioAssay AID493014 (National Center for Advancing Translational Sciences (NCATS), 2011):
# In all, about 340,000 compounds went through this assay and about 170 (0.05%) were called active. Inconclusive means that the source gave no clear call. Such entries were picked first, then a sample of the others. The call rests on the fitted dose curve; in most records, active means well fitted inhibition curve with a large enough effect in the signal ratio, with a control signal flat (not every such curve was filed as active); inconclusive means small, poorly fitted or top-dose-only effect, or effect the other way, or a change in a side signal; inactive means flat fitted curve, though single readings scatter; the % refers to the signal ratio. A potency beside an inconclusive call is a rough fit, not a confirmed value.
# Assay: qHTS Assay to Find Inhibitors of Chronic Active B-Cell Receptor Signaling;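 on activity change, negative = inhibition: plate controls were basal doxycycline-induced cells for no effect and cells given 10 µM MG132 for full effect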
# Conditions: ABC-DLBCL IkBa-CBG/CBR reporter, luminescence ratio (green luciferase fused to IkBa over red control in TMD8 lymphoma cells), 4 h; activity change, negative = inhibition: at 46.1 µM (top of the series)
# In short: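 Cell line TMD8 (human ABC DLBCL), stably expressing tet-inducible CBG68-IkBa fusion and CBR; IMDM/0.5% FBS; cpd up to 46 uM; dox induction, 4 h, 37C/5% CO2; dual luminescence; green/red ratio; MG132 control.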
# Potency means the concentration at half of the fitted maximal effect.
Compound,"activity change, negative = inhibition",Potency
Cc1occc1C(=O)NNC(=O)NC12CC3CC(CC(C3)C1)C2,inconclusive: -24.7%,
NC(=S)N/N=C/c1coc2ccc(F)cc2c1=O,inconclusive: 26.4%,
O=C(NC1CCS(=O)(=O)C1)C1C2CC3CC(C2)CC1C3 (centres undefined),inconclusive: 5.4%,
O=C1SC(Cc2ccccc2)C(=O)N1c1ccccc1 (centres undefined),inconclusive: 7.27%,
O=C(O)c1ccc(OS(=O)(=O)c2ccc(Cl)s2)cc1,inconclusive: 1.56%,
COc1cc(Nc2nc3ccccc3n3nnnc23)cc(OC)c1OC,,"inconclusive: 12.6 µM [falling, partial curve]"
COc1ccc(Nc2nc(OC)nc(N3CCOCC3)n2)cc1,inconclusive: -85.8%,
Cc1cc2c(cc1S(=O)(=O)N(C)CC(=O)Nc1ccc(C#N)cc1)OCC(=O)N2,inactive,
CCC(=O)c1c[nH]c(C(=O)NCCCN2CCOCC2)c1,inactive,
COC(=O)[C@@H](Cc1ccccc1)NC(=O)[C@H]1CCC(=O)N1C(=O)OCc1ccccc1,inactive,
CN(C)/C=C1\C=C2C(=O)c3ccccc3N2C1=O,,"inconclusive: 25.1 µM [falling, single point]"
N#CC1=C(SCC(=O)c2cc3ccccc3oc2=O)NC(=O)C(C#N)C12CCCC2 (centres undefined),,"inconclusive: 5.17 µM [falling, partial curve, poor fit]"
Cc1occc1C(=O)Nc1cccc([N+](=O)[O-])c1,inactive,
COc1ccc(N2CCN(c3cnc4ccccc4n3)CC2)cc1,inconclusive: 0.67%,
CCN(CC)CC(=O)c1ccc(-c2ccccc2)cc1,inconclusive: 11.4%,
COc1ccc(OCc2nnnn2-c2ccccc2)cc1,inactive,
NC(N)=NC(=O)c1nc(Cl)c(N2CCCCCC2)nc1N,inactive,
CS(=O)(=O)c1ccc(C(=O)OCC(=O)NC(=O)C2CCCCC2)cc1[N+](=O)[O-],inconclusive: 11.8%,
CCOC(=O)Cc1csc(NC(=O)c2ccc3c(c2)OCO3)n1,,"inconclusive: 23.1 µM [falling, partial curve]"
Cc1ccc(CNC(=O)c2oc3ccc(S(=O)(=O)N4CCOCC4)cc3c2C)cc1,inactive,
Cc1c(CCNC(=O)c2ccc(Br)o2)sc2nc(-c3ccc(Cl)cc3)nn12,inactive,
Cn1nccc1C(=O)NC1CCCc2c1cnn2-c1ccc(C(C)(C)C)cc1 (centres undefined),,"inconclusive: 35.5 µM [falling, single point]"
O=C1CN(C(=O)COC(=O)C23CC4CC(CC(O)(C4)C2)C3)c2ccccc2N1,inconclusive: 1.57%,
COc1ccc(N=Cc2sc(O)c3ccccc23)cc1,inactive,

# 2 compounds drawn at random from the list so far:
Compound,"activity change, negative = inhibition",Potency
O=C(O)c1ccc(OS(=O)(=O)c2ccc(Cl)s2)cc1,inconclusive: 1.56%,
O=C1CN(C(=O)COC(=O)C23CC4CC(CC(O)(C4)C2)C3)c2ccccc2N1,inconclusive: 1.57%,
